Measured values as given in publication PMC4937518.
Results are given in words; binding and its absence hold for the method and conditions named. Binding seen in cells or lysates may run through a third protein. Binding can be weak; no strength is given.

Molecular target: T1, acid-sphingomyelinase-like phosphodiesterase 3b (SMPDL3B) (human (endogenous in U2OS)) (UniProt Q92485)
T1 sequence: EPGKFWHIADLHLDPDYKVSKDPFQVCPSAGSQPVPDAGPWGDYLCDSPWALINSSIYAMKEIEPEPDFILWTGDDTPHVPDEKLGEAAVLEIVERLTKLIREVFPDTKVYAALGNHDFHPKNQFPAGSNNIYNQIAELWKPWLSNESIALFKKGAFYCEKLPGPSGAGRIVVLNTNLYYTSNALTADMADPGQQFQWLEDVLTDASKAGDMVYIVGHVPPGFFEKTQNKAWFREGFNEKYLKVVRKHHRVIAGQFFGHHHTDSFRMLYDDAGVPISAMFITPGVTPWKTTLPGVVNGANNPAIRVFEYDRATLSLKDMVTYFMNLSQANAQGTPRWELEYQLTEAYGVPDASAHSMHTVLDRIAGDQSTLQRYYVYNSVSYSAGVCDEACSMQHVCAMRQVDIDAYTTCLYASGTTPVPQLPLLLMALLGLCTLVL
Assay: cross-linking + SEC; protein correlation profiling: U2OS cells crosslinked in vivo with 6% formaldehyde (30 min, room temperature), lysed in 4% SDS with TCEP, denaturing SEC (BioBasic SEC1000, 0.2% SDS, 100 mM NaCl, 10 mM NaPO4 pH 6.0, 30 °C), 48 fractions, crosslinks reversed by heat, LC-MS/MS, LFQ elution profiles, n = 3

binding: binds
Substance: acid ceramidase (ASAH1) (human (endogenous in U2OS)) (enzyme)
